From the supplement of paper PMC10849652
The other results are listed elsewhere or left out.

By UniProt entry, the sequences of proteins in these tests, tags left out. Where a name states a change or a piece, a line headed by the entry shows the natural chain unless it says otherwise.
UniProt P84157: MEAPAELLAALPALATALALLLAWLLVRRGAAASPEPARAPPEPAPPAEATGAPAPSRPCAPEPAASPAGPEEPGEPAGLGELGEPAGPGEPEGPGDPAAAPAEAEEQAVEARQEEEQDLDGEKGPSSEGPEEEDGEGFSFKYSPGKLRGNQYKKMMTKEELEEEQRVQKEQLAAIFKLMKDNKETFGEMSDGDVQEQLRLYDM
UniProt Q9BTC8: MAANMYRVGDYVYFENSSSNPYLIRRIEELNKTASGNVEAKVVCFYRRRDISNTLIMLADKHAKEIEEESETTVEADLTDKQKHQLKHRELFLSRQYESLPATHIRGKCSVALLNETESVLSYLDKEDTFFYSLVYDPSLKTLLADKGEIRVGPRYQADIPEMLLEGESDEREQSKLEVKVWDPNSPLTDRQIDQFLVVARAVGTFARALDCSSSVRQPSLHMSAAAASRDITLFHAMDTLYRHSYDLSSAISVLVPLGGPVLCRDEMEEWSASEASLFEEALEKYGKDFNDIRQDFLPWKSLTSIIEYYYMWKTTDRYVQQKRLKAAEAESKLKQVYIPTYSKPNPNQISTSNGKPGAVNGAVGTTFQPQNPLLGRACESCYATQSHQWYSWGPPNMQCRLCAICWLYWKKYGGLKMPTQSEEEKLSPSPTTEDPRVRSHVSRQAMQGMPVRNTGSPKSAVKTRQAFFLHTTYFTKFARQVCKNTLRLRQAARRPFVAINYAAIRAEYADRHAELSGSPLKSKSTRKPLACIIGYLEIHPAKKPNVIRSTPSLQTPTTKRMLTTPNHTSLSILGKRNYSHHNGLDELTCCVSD
UniProt Q93083: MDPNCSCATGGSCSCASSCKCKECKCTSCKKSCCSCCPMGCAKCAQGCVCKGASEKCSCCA
UniProt Q9BUK6: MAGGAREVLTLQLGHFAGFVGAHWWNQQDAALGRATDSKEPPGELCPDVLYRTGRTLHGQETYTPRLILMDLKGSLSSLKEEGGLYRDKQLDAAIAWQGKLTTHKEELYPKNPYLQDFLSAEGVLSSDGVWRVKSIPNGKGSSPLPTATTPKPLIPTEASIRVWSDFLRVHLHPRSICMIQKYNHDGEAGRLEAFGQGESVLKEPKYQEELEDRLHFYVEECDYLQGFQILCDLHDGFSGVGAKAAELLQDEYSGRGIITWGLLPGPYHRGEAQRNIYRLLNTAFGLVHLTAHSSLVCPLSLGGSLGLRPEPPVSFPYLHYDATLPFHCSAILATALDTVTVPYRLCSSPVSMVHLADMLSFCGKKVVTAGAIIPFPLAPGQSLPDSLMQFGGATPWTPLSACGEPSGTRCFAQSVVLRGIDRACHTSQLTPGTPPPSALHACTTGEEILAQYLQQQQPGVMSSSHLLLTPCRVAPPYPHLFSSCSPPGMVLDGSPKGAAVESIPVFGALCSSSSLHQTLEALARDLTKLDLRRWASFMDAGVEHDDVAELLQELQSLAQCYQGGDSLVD
MTHFD1, A0A384N5Y3, UniProt A0A384N5Y3, whole entry, looked up: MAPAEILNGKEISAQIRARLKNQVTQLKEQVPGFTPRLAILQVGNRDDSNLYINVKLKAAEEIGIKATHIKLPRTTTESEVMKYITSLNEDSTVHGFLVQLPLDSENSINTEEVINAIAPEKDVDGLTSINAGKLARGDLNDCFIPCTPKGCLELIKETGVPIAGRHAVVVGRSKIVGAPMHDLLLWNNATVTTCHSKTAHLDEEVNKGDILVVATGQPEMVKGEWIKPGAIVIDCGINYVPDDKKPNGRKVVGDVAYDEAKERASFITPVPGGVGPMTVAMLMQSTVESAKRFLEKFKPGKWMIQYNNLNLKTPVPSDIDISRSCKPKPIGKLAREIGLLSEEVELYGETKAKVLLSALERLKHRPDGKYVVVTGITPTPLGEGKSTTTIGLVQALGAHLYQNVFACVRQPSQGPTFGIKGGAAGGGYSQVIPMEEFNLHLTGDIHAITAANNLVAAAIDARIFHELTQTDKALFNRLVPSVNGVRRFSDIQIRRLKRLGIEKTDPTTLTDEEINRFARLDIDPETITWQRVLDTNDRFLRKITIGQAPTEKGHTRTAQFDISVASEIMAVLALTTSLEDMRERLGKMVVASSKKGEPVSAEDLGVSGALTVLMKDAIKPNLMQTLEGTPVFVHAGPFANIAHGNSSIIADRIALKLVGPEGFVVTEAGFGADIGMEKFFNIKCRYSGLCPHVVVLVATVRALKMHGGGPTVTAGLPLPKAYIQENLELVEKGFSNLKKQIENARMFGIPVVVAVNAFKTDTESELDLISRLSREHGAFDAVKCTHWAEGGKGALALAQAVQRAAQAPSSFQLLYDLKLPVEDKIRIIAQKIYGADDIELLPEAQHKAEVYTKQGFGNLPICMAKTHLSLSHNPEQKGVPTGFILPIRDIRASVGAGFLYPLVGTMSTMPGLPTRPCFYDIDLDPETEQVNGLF
UniProt O14950, whole entry, looked up: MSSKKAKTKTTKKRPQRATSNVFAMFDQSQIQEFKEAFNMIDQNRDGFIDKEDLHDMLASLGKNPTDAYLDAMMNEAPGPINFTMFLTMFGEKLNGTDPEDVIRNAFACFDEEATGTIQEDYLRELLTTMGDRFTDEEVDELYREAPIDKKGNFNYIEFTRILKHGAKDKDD
UniProt P20585: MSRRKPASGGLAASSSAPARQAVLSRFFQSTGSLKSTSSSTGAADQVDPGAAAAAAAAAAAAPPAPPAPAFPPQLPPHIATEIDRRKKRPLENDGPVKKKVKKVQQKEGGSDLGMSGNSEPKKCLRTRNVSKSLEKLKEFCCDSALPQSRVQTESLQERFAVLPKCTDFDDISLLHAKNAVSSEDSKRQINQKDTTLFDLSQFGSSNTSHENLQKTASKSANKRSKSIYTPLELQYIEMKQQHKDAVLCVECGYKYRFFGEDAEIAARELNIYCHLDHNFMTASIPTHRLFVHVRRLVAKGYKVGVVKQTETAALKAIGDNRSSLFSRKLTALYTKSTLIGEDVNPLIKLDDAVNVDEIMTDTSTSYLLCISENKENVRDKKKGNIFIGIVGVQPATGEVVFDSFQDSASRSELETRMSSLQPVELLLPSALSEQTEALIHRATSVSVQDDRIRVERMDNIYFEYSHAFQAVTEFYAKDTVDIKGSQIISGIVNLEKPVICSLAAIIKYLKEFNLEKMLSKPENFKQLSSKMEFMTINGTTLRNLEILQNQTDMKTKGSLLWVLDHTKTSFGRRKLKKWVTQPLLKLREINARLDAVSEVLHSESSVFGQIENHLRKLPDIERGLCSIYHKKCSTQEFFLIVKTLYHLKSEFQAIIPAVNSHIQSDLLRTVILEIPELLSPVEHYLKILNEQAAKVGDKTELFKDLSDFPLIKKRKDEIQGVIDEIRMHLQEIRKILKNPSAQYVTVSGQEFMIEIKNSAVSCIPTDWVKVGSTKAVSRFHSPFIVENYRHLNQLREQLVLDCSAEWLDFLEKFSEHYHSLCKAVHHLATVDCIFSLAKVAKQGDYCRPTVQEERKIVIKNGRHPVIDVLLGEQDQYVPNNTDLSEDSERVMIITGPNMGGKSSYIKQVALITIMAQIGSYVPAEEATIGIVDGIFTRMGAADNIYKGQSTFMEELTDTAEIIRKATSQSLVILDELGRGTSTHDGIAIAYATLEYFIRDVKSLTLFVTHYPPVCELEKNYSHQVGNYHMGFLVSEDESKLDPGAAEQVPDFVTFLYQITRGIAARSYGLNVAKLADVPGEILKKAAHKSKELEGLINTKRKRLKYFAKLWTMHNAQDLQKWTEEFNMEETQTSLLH
UniProt P52701: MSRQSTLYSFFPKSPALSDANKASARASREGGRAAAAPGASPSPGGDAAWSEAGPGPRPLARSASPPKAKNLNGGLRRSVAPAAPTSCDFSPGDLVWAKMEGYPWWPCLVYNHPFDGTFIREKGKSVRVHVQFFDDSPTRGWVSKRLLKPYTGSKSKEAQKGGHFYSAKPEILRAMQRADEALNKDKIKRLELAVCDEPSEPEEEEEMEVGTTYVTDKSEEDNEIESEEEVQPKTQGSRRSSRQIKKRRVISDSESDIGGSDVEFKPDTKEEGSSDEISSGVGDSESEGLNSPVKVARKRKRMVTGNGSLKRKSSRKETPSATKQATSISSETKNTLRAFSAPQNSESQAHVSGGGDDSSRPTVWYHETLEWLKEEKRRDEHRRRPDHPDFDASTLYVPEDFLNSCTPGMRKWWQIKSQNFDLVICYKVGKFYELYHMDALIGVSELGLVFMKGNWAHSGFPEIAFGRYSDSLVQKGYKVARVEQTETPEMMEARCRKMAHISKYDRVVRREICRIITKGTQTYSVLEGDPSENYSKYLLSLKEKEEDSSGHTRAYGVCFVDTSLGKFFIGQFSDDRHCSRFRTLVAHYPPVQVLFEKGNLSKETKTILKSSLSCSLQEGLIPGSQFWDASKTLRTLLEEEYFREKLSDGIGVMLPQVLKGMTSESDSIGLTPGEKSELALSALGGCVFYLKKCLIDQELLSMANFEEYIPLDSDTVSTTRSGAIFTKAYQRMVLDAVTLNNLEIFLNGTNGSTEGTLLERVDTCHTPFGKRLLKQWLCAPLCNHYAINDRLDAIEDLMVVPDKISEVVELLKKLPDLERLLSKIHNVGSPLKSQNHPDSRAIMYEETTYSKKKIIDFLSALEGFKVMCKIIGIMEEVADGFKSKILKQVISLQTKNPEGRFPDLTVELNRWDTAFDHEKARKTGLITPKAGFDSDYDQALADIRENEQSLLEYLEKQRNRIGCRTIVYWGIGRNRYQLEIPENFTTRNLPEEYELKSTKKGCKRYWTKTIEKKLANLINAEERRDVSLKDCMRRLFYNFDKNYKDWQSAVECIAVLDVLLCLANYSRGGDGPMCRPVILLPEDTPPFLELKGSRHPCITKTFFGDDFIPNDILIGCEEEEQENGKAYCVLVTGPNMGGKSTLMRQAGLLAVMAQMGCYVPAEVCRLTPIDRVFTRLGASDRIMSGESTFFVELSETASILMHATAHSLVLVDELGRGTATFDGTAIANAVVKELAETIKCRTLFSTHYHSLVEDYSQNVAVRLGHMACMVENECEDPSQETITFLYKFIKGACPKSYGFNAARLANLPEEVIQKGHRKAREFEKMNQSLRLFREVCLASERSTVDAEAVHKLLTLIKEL
UniProt Q9P0P8: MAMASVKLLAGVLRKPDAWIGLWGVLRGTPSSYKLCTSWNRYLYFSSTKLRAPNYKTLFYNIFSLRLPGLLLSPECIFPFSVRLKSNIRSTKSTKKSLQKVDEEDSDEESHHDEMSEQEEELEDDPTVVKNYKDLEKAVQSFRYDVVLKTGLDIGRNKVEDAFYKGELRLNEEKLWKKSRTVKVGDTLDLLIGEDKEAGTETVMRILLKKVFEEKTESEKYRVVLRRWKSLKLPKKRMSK
UniProt P13640: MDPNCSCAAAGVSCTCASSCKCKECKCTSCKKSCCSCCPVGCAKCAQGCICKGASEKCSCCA
UniProt P03905, whole entry, looked up: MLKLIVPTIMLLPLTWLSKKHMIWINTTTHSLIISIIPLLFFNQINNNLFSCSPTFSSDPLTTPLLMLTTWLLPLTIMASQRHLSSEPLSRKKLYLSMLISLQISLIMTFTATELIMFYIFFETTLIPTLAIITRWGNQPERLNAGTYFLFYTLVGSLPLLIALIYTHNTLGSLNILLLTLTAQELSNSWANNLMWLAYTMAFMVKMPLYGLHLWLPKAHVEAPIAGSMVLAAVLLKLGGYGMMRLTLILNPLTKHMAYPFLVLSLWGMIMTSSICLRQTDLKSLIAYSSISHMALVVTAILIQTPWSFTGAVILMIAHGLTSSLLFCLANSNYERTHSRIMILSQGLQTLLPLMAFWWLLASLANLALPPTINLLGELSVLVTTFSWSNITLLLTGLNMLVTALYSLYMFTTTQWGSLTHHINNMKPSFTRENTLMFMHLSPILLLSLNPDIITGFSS
UniProt P05976, whole entry, looked up: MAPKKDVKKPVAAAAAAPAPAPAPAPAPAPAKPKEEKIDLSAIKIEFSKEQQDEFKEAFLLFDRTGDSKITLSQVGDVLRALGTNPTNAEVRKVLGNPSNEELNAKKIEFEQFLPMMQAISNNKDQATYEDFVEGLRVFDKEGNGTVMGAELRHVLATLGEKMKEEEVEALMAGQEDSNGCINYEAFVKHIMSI
UniProt Q6P1R3: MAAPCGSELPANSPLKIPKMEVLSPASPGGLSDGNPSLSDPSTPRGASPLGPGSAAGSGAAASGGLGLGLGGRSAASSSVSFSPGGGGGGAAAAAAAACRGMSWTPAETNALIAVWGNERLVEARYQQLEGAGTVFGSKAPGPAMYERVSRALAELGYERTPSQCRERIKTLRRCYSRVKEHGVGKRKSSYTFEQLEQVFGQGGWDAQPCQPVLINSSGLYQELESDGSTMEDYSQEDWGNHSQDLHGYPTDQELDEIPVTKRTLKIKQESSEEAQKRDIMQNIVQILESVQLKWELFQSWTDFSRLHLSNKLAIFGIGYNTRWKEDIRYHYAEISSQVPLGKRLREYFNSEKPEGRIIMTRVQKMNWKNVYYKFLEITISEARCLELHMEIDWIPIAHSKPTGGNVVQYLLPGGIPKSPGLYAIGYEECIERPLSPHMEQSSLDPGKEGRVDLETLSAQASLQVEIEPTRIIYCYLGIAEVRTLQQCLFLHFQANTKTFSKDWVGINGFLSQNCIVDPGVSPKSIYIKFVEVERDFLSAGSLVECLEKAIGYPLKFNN

Legend:
Experiment in all cases: log2 fold change, soluble protein after heating vs DMSO (PISA); higher = thermal stabilisation; K562 cells, 10 uM, 30 min; active = over 0.2 and 3.5 SD of the protein, either way, in both replicates (recomputed)
[1] = compound: CC[C@@H]1C(=O)N(C)c2cnc(Nc3ccc(C(=O)NC4CCN(C)CC4)cc3OC)nc2N1C1CCCC1
How it was run: (§1)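 K562 cells at 2×10^6 cells/mL were given 10 μM compound for 30 min. Aliquots then went through 3 min of heating across 48°C-58°C, were pooled, and were extracted in PBS with 0.5% NP-40 at 4°C, and the supernatant after 21,000xg for 90 min was quantified by TMTpro 16plex LC-MS/MS with channel sums equalised. Thermal stability relative to control samples, from duplicates, is given as log2 fold change.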

volasertib = compound: CC[C@@H]1C(=O)N(C)c2cnc(Nc3ccc(C(=O)N[C@H]4CC[C@H](N5CCN(CC6CC6)CC5)CC4)cc3OC)nc2N1C(C)C [volasertib]
How it was run: as §1

[2] = compound: CC[C@H](C)N1C=C(C2=C(C=C(C=C21)C3=CN=C(C=C3)N4CCNCC4)C(=O)NCC5=C(C=C(NC5=O)C)C)C
How it was run: as §1

epoxomicin = compound: CC[C@H](C)[C@@H](C(=O)N[C@@H]([C@@H](C)O)C(=O)N[C@@H](CC(C)C)C(=O)[C@]1(CO1)C)NC(=O)[C@H]([C@@H](C)CC)N(C)C(=O)C [epoxomicin]
How it was run: as §1

[3] = compound: CCn1cc(-c2ccnc3[nH]c(-c4cccc(CN(C)C)c4)cc23)c(-c2ccc(NC(=O)N(C)C)cc2)n1
How it was run: as §1

[4] = compound: CN(C)CC(=O)Nc1ccc2[nH]c(=O)c3ccccc3c2c1
How it was run: as §1

[5] = compound: CN1C2=C(C3=C1C(=O)N(N=C3)CC4=CC(=CC=C4)N)SC(=C2)S(=O)C
How it was run: as §1

[6] = compound: CN1CCC(CNc2ccc3ncc(-c4cccc(OC(F)(F)F)c4)n3n2)CC1
How it was run: as §1

[7] = compound: CCn1c(C(=O)N(C2CC2)C2CC2)cc2c3c(ncn3C)c(Nc3cc(C)n(C)n3)nc21
How it was run: as §1

rosiglitazone = compound: CN(CCOC1=CC=C(C=C1)C[C@H]2C(=O)NC(=O)S2)C3=CC=CC=N3 (racemic) [rosiglitazone]
How it was run: as §1

Measured: log2 fold change

MRPS15 (UniProt P82914)
inactive: [1] -0.021 | volasertib -0.048 | [2] 0.163 | epoxomicin -0.007 | [3] -0.115 | [4] -0.01 | [5] 0.049 | [6] 0.042

MXRA7 (UniProt P84157)
inactive: [1] 0.04 | volasertib 0.08 | [2] -0.11 | epoxomicin -0.034 | [3] -0.042 | [4] 0.124 | [5] -0.114 | [6] 0.113

MRPS10 (UniProt P82664)
inactive: [1] 0.02 | volasertib 0.027 | [2] 0.088 | epoxomicin -0.022 | [3] 0.045 | [4] 0.085 | [5] 0.066 | [6] 0.068

MRPS33 (UniProt Q9Y291)
inactive: [1] 0.016 | volasertib 0.025 | [2] 0.057 | epoxomicin -0.012 | [3] -0.011 | [4] -0.01 | [5] -0.001 | [6] 0.017

MTA3 (UniProt Q9BTC8)
inactive: [1] 0.023 | volasertib 0.002 | epoxomicin 0.14 | [7] 0.009 | [3] -0.116 | [5] 0.103 | [6] -0.047

MTHFD1 (UniProt P11586)
inactive: [1] -0.074 | volasertib -0.002 | [2] 0.035 | epoxomicin 0.067 | [3] -0.159 | [4] 0.051 | [5] -0.057 | [6] 0.004

MT1L (UniProt Q93083)
inactive: [1] -0.161 | volasertib 0.071 | [2] -0.018 | [7] -0.024 | [3] -0.122 | [5] 0.432 | [6] -0.139

MSTO1 (UniProt Q9BUK6)
inactive: [1] 0.014 | volasertib -0.012 | [2] 0.046 | epoxomicin 0.044 | [3] -0.119 | [4] 0.071 | [5] -0.057 | [6] -0.185

Two entries picked at random from those above:
MRPS33 (UniProt Q9Y291)
inactive: [1] 0.016 | volasertib 0.025 | [2] 0.057 | epoxomicin -0.012 | [3] -0.011 | [4] -0.01 | [5] -0.001 | [6] 0.017

MT1L (UniProt Q93083)
inactive: [1] -0.161 | volasertib 0.071 | [2] -0.018 | [7] -0.024 | [3] -0.122 | [5] 0.432 | [6] -0.139

(continued)

MTHFD1, A0A384N5Y3
inactive: [1] -0.152 | volasertib -0.011 | [2] 0.065 | epoxomicin 0.002 | [3] -0.113 | [4] 0.045 | [5] -0.084 | [6] -0.081

MRPS9 (UniProt P82933)
inactive: [1] 0.094 | volasertib 0.109 | [2] 0.076 | epoxomicin -0.009 | [3] 0.027 | [4] -0.004 | [5] 0.071 | [6] 0.001

MYL12B (UniProt O14950)
inactive: [1] -0.053 | volasertib -0.085 | [2] 0.06 | epoxomicin 0.052 | [3] -0.064 | [4] 0.031 | [5] -0.078 | [6] 0.01

MTMR1 (UniProt Q13613)
inactive: [1] 0.101 | volasertib -0.013 | epoxomicin -0.012 | [3] -0.008 | [4] -0.043 | rosiglitazone -0.043 | [5] 0.156 | [6] -0.126

MRPS35 (UniProt P82673)
inactive: [1] 0.064 | volasertib 0.014 | [2] 0.029 | epoxomicin 0.048 | [3] -0.076 | [4] 0.027 | [5] -0.013 | [6] -0.007

MRPS21 (UniProt P82921)
inactive: [1] 0.062 | volasertib -0.008 | [2] 0.063 | epoxomicin 0.064 | [4] 0.058 | [5] -0.205

MRPS18B (UniProt Q9Y676)
inactive: [1] 0.028 | volasertib -0.039 | [2] 0.09 | epoxomicin 0.042 | [3] -0.021 | [4] 0.041 | [5] -0.01 | [6] -0.087

MSH3 (UniProt P20585)
inactive: [1] -0.032 | volasertib -0.179 | [2] -0.003 | epoxomicin 0.062 | [3] -0.019 | [4] -0.028 | [5] -0.008 | [6] 0.047

MYH10 isoform 3 (UniProt P35580)
inactive: [1] -0.082 | [2] 0.026 | epoxomicin 0.094 | [3] -0.036 | [4] 0.024 | [5] -0.064 | [6] -0.077
active: volasertib -0.216

MSH6 (UniProt P52701)
active: volasertib -0.683
inactive: [1] -0.306 | [2] 0.227 | epoxomicin 0.097 | [3] -0.089 | [4] 0.172 | [5] -0.044 | [6] -0.261

MRPS2 (UniProt Q9Y399)
inactive: [1] -0.048 | volasertib 0.037 | [2] 0.053 | epoxomicin 0.02 | [3] -0.045 | [4] 0.031 | [5] 0.016 | [6] 0.044

MRPS31 (UniProt Q92665)
inactive: [1] 0.056 | volasertib 0 | [2] 0.036 | epoxomicin -0.015 | [3] 0.014 | [4] -0.054 | [5] 0 | [6] 0.052

MTHFD1L (UniProt B7ZM99)
inactive: [1] 0.027 | volasertib -0.11 | [2] 0.004 | [7] 0.021 | [3] -0.137 | [4] 0.053 | rosiglitazone 0.097 | [5] -0.045 | [6] -0.074

MRPS17 (UniProt Q9Y2R5)
inactive: [1] -0.111 | volasertib -0.018 | [2] 0.022 | epoxomicin -0.043 | [3] 0.043 | [4] 0.069 | [5] 0.022 | [6] -0.016

MTRES1 (UniProt Q9P0P8)
inactive: [1] -0.066 | volasertib -0.072 | epoxomicin -0.024 | [7] 0.036

MT1G (UniProt P13640)
inactive: [1] -0.049 | volasertib 0.073 | [2] 0.031 | [7] 0.048 | [3] -0.129 | [4] -0.063 | rosiglitazone 0.002 | [5] -0.002 | [6] -0.083

MT-ND4 (UniProt P03905)
active: [3] 0.391
inactive: [1] 0 | volasertib -0.102 | [2] -0.028 | epoxomicin 0 | [4] -0.025 | [5] -0.065 | [6] 0.029

MYL1 (UniProt P05976)
inactive: rosiglitazone -0.016

MSANTD2 (UniProt Q6P1R3)
inactive: [1] -0.071 | epoxomicin -0.273 | [4] 0.004 | [5] 0.13
